This assay can be described thus: qHTS Assay to Find Inhibitors of Chronic Active B-Cell Receptor Signaling. The following applies: ABC-DLBCL IkBa-CBG/CBR reporter, luminescence ratio (green luciferase fused to IkBa over red control in TMD8 lymphoma cells), 4 h. The method in brief:
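TMD8 human ABC-DLBCL cells with doxycycline-inducible IκBα–green luciferase fusion and unfused red luciferase, in 0.5% FBS medium; compounds up to 46 uM, 4 h at 37C. Green/red luminescence ratio, filter-overlap corrected, fitted to concentration-response curves.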

[1] abbreviates: measured here: CBR red luminescence, cell number.
Where [2] appears, read: measured here: IkBa-CBG green luminescence.

The structures appear in SMILES notation. The list shows a part of the results. Further columns of the screen follow, without active or inactive calls. The list favours compounds with an active or inconclusive main result. Potencies come from curve fits of mixed quality, noted in brackets.

For orientation: AC50 means the concentration at which the activity in the assay is half-maximal. Consider `NC(=O)C1CCN(c2ncnc3c2c(-c2ccccc2)cn3-c2ccccc2)CC1`, for which the AC50 under setting [1] was 0.82 µM [rising, full curve, poor fit].

As to `Cc1nc(NC(=O)C2CC2)sc1C(=O)Nc1cccc(Cl)c1`, the AC50 under setting [1] is 20 µM [falling, single point].

Take `CN(C(=O)c1ccc2c(Cl)c3c(nc2c1)CCC3)c1ccccc1`: the AC50 under setting [1] is 20.6 µM [falling, single point].

As for `O=C(O)c1ccc(S(=O)(=O)c2ccc3c(c2)C(=O)N(NC(=O)c2ccccc2)C3=O)cc1`, the AC50 under setting [1] is 4.47 µM [falling, partial curve].

Consider `Cc1nc2ccccc2n2c(-c3ccccc3)c3c(=O)n(C)c(=O)n(C)c3c12`, for which the AC50 under setting [1] was 0.164 µM [rising, full curve, poor fit]. In the case of `N=C1S/C(=C\c2cn[nH]c2-c2ccc(F)cc2)C(=O)N1c1ccccc1F`, under setting [1], the AC50 was 9.2 µM [falling, partial curve, poor fit]. On to `Cc1c(C(=O)NCc2ccccn2)sc2nc(-c3ccc(F)cc3)cn12`, for which the AC50 under setting [1] was 4.11 µM [rising, full curve, poor fit]. Take `O=C1CC(c2ccc(F)cc2)Sc2nc(C34CC5CC(CC(C5)C3)C4)nn21` (stereo not given): the AC50 under setting [1] was 5.17 µM [falling, full curve, poor fit].

With `CC1CCCCN1C(=O)CSc1nc(N)cc(=O)[nH]1` (stereo not given), under setting [1], the AC50 was 0.184 µM [falling, full curve, poor fit]. The same measure, in the same setting: next, `CC(=O)N1CCN(C(=O)/C(C#N)=C/c2ccc3c(c2)OCO3)CC1`: 7.08 µM [falling, partial curve, poor fit]; `O=C(O)CCC(=O)CCC(=O)c1ccc(Cl)cc1`: 25.9 µM [falling, single point]; `CCOC(=O)/C(C#N)=C/c1c(N2CCN(c3ccc(OC)cc3)CC2)nc2c(C)cccn2c1=O`: 6.31 µM [falling, full curve, poor fit].

Regarding `Cc1ccc(N2CC(C(=O)OCc3ccccc3)CC2=O)cc1` (stereo not given), the AC50 under setting [1] was 2.82 µM [rising, partial curve, poor fit]. Still for that read-out and setting: next, `CCOc1ccc(CCNC(=O)CN(C)S(=O)(=O)c2cccc3nsnc23)cc1OCC`: 1.78 µM [rising, full curve, poor fit]. On to `Cn1c(=O)c2c(nc(SCCOc3ccc4ccc(=O)oc4c3)n2C)n(C)c1=O`, for which, under setting [1], the AC50 is 5.17 µM [falling, partial curve, poor fit]. As for `CCc1c(C)c(C#N)c2[nH]c3ccccc3n2c1=S`, the AC50 was 5.62 µM [falling, full curve, poor fit] under setting [1] and 10 µM [rising, partial curve, poor fit] under setting [2]. For the compound `CCOC(=O)c1c(/C=N/Nc2ccccc2)c2sc(C)cc2n1C`, the AC50 is 6.51 µM [rising, partial curve, poor fit] under setting [1] and 18.4 µM [falling, partial curve] under setting [2]. Consider `Cc1sc2ncnc(N3CCC(C(=O)NNC(=O)c4ccccc4Cl)CC3)c2c1C`, for which the AC50 under setting [1] is 11.2 µM [falling, partial curve].

Consider `COc1ccc(NC(=O)c2ccc(COc3ccccc3Br)o2)cc1OC`, for which the AC50 under setting [1] was 15.8 µM [falling, partial curve, poor fit]. With `CN1CCC(CN)(N2CCN(c3ccccc3)CC2)CC1`, the AC50 under setting [1] was 0.0891 µM [rising, full curve, poor fit]. Take `Cc1cc2cc(CNC(=O)C3CCCC3)ccc2n1C`: the AC50 under setting [1] is 3.98 µM [rising, partial curve]. Regarding `Cc1ccc(C(=O)NNC(=S)NC(=O)c2ccc(Cl)cc2Cl)cc1`, under setting [1], the AC50 was 13 µM [falling, partial curve, poor fit]. In the case of `CCOC(=O)c1c(NC(=O)COC(=O)Cc2n[nH]c(=O)c3ccccc23)sc(C(=O)N(C)C)c1C`, the AC50 under setting [1] was 1.03 µM [rising, full curve, poor fit]. For the compound `NNC(=O)c1cc2c(N3CCC(Cc4ccccc4)CC3)ncnc2s1`, the AC50 under setting [1] is 35.5 µM [falling, single point]. Turning to `CCOC(=O)Cc1nnc(Nc2cc(C)ccc2C)c2ccccc12`, the AC50 under setting [1] was 7.94 µM [falling, partial curve, poor fit]. Consider `Cc1ccccc1OCC(=O)O/N=C(\N)Cc1cccs1`, for which the AC50 under setting [1] is 0.631 µM [rising, full curve, poor fit]. With `O=C(Cc1ccc(Cl)c(Cl)c1)Nc1ccccc1N1CCOCC1`, the half-maximal activity concentration (AC50) under setting [1] was 35.5 µM [falling, single point]. For the compound `CCN(CC)CC(=O)Nc1ccc(/C(C)=N/NC2=NCCN2)cc1`, the AC50 under setting [1] was 11.2 µM [falling, partial curve, poor fit]. With `Cc1ccc(C(C)C)c(OCCCCN2CCNCC2)c1`, the AC50 under setting [1] is 35.5 µM [falling, single point]. As to `Cc1sc2nc(C3CC3)nc(N3CCN(C(=O)c4ccc(Cl)cc4)CC3)c2c1C`, the AC50 under setting [1] was 12.6 µM [falling, partial curve]. Consider `O=C1Nc2ccccc2C1C(C[N+](=O)[O-])c1ccccn1` (stereo not given), for which the AC50 under setting [1] was 14.1 µM [falling, partial curve, poor fit]. For the compound `COc1cc(NC(=O)NNC(=O)c2cc3occc3n2C)cc(OC)c1OC`, the AC50 under setting [1] is 20 µM [falling, partial curve, poor fit]. Turning to `NC(=S)Nc1nc2ccccc2s1`, under setting [2], the concentration at half-maximal activity (AC50) is 0.631 µM [falling, full curve, poor fit]. Regarding `COc1ccc(-c2noc(CCC(=O)N3CCN(c4cccc(C)c4C)CC3)n2)cc1`, the AC50 under setting [1] is 20.6 µM [rising, partial curve].

In the case of `O=c1cc(-c2ccccc2)[nH]c2ccc(F)cc12`, under setting [2], the AC50 is 10.3 µM [falling, partial curve]. With `CCOC(=O)C1CCN(C(=O)CN(Cc2ccc(Cl)cc2)S(C)(=O)=O)CC1`, the AC50 under setting [1] was 2.91 µM [falling, partial curve, poor fit]. For the compound `N#C/C(=C\c1ccc(N2CCOCC2)o1)C(=O)NC1CCCCC1`, the AC50 under setting [1] is 22.4 µM [falling, single point]. Still for that read-out and setting: in the case of `COc1cc(-c2cc(C(=O)Nc3ccc(O)cc3)c3ccccc3n2)cc(OC)c1OC` it was 35.5 µM [falling, single point]; in that of `CCCCNc1c(-c2cccc(Sc3ccc(OC)cc3)c2)nc2ccccn12`, 23.1 µM [falling, single point]; in that of `Cc1ccn2cc(-c3ccc(NC(=O)c4ccco4)cc3)nc2c1`, 1.84 µM [rising, partial curve, poor fit]. In the case of `COc1ccc(-c2c(C)n([O-])c(C)c(C)[n+]2=O)cc1`, under setting [1], the AC50 is 18.4 µM [rising, partial curve]. Regarding `O=C(Nc1cnc2ccccc2c1)c1cccc(-n2cnnn2)c1`, the AC50 under setting [1] is 7.08 µM [falling, partial curve]. `COc1ccc(OC)c(NC(=O)C2CCN(c3cc(-c4ccccc4)nc4ncnn34)CC2)c1`: the AC50 under setting [1] was 3.26 µM [rising, single point]. For `O=C(CSc1cccc[n+]1[O-])NN(c1ccccc1)c1ccccc1`, the AC50 under setting [1] was 7.08 µM [rising, full curve, poor fit].

On to `COc1ccc(C(=O)/C=C/c2ccc(O)cc2)c2c1CC(O)C(C)(C)O2` (stereo not given), for which the AC50 under setting [2] is 23.1 µM [falling, partial curve, poor fit]. As to `Cc1ccc(O)c(C2=NCCNC(C(F)(F)C(F)F)=C2)c1`, the AC50 under setting [1] was 0.231 µM [falling, full curve, poor fit]. With `Cc1cc(Cl)cc(Cl)c1OCC(=O)NCc1ccco1`, under setting [1], the AC50 is 8.91 µM [falling, partial curve, poor fit]. For the compound `Cc1ccc(OCC(=O)Nc2cccnc2Cl)cc1C`, the AC50 under setting [1] was 35.5 µM [falling, single point]. Regarding `COc1ccc2nc(N3CCC(O)CC3)c(C#N)cc2c1`, the AC50 under setting [1] is 14.1 µM [rising, partial curve]. With `CCOc1ccc(N=C(/C(C(=O)C(=O)N2CCOCC2)=C(\O)c2ccccc2)c2ccccc2)cc1`, the AC50 under setting [1] is 14.6 µM [falling, partial curve, poor fit].

Take `CC(C)(CNC(=O)c1ccc(-c2ccccc2Cl)o1)N1CCOCC1`: under setting [1], the AC50 was 4.61 µM [rising, partial curve, poor fit]. Turning to `Cc1ccc(C(=O)NCC(=O)OCC(=O)c2c(N)n(C)c(=O)n(C)c2=O)s1`, the AC50 under setting [1] is 17.8 µM [rising, single point]. Take `O=Nc1c2nc3ccccc3n(O)c-2c2ccccc12`: the AC50 under setting [1] was 1.12 µM [falling, partial curve, poor fit]. In the case of `CCOCCCNc1nc(-c2ccccc2)nc2ccccc12`, the AC50 under setting [1] was 3.16 µM [falling, partial curve, poor fit]. `Clc1ccc(-n2cnnn2)cc1`: under setting [1], the AC50 is 20.6 µM [falling, partial curve, poor fit].

In the case of `NC(=O)N/N=C(/CCCCCC/C(=N\NC(N)=O)c1ccccc1)c1ccccc1`, the AC50 under setting [1] was 10 µM [falling, partial curve, poor fit]. Consider `O=C(CCC1CCCN(Cc2cccc(Cl)c2)C1)NCc1ccccc1F` (stereo not given), for which the AC50 under setting [1] is 3.55 µM [rising, partial curve, poor fit]. As for `Cn1nccc1C(=O)NC(=S)Nc1cc(Cl)cc(Cl)c1`, the AC50 under setting [1] is 3.16 µM [rising, partial curve, poor fit]. Same read-out and setting: next, `CCCn1c(=C(C#N)C#N)s/c(=C2\C=Cc3ccccc3N2CC)c1=O`: 35.5 µM [falling, single point]; `Cc1ccc(-c2cc(C(=O)Nc3nccs3)c3ccccc3n2)o1`: 10.3 µM [falling, partial curve, poor fit]; `COc1ccc(F)cc1S(=O)(=O)NCC(c1ccco1)S(=O)(=O)c1ccc(F)cc1` (stereo not given): 1.78 µM [falling, partial curve, poor fit].

`COc1ccc2c(c1)c(=O)cc(C)n2CC(=O)NCc1ccco1`: the AC50 under setting [1] is 32.6 µM [falling, single point]. As for `Cc1cccc(COCC(Cc2ccccc2)N2CCN(C(=O)c3ccc(C(F)(F)F)cc3)CCC2=O)c1` (stereo not given), the AC50 under setting [1] is 18.4 µM [falling, single point].

These data come from PubChem BioAssay AID493014 (National Center for Advancing Translational Sciences (NCATS), 2011).
